# Results as given in paper PMC7819943, “Rice protein-binding microarrays: a tool to detect cis-acting elements near promoter regions in rice”.
# The list shows a part of the results.
# Biological target: T1, OsSMF1 (Oryza sativa, UniProt Q6ZLB0 1-436)
# T1 sequence: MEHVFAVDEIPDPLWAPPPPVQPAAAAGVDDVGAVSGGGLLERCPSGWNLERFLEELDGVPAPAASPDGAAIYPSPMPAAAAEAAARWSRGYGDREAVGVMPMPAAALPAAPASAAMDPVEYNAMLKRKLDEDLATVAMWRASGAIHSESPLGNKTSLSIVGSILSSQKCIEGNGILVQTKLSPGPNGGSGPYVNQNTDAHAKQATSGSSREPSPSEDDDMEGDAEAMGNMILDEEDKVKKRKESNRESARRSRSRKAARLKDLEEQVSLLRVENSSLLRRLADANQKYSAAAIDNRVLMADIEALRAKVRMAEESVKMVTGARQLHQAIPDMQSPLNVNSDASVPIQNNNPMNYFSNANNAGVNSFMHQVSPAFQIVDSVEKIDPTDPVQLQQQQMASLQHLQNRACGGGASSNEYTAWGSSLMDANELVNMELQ
# Assay: protein-binding microarray (RPBM); PBS, 2% BSA, 51.3 ng/ul salmon testes DNA, 50 uM zinc acetate, 200 nM TF, 25 C, 1 h; high values mean tight binding
# Conditions: protein: recombinant; tags: N-terminal polyhistidine and DsRed monomer fusion (pET32a); chain copies: 2; label: CyDye5-dUTP incorporated in the synthesized complementary strand; 3' TTTTT single-stranded linker to array surface; dsDNA, one strand shown
# Method in brief: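 For the binding signal, per-feature fluorescence intensity was read in arbitrary units on an Axon 4000B scanner. Before scanning, a 2% BSA-blocked custom Agilent array made double-stranded with Cy5-dUTP was washed after 1 h at 25 °C with 200 nM protein and 50 µM zinc acetate. The proteins were Ni–NTA-purified transcription factors with N-terminal polyhistidine and DsRed fusions, expressed in E. coli BL21-CodonPlus.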
row,Sequence,binding signal
1,GAAGCTGTACGAGAACGGCAGCTACGTCATCGTGACCACGCGGAGTCACCTAGTGCAG,9320 fluorescence intensity (a.u.)
2,GGCCCGCCCCGAGCCGTCCACGTGTACAAACCTCGGAAGCCGGAGTCACCTAGTGCAG,19100 fluorescence intensity (a.u.)
3,ATGTGCCCATCAAATCCAACGAATAAATGAGTCATCGGTTCGGAGTCACCTAGTGCAG,11100 fluorescence intensity (a.u.)
4,CACAGTACGTGGCAGCAGGTTGCCGCGTGGCACCACCGACCGGAGTCACCTAGTGCAG,17000 fluorescence intensity (a.u.)
5,AACCCACAGAAATAAAATGATTTTGACTCATTTTCACTTGCGGAGTCACCTAGTGCAG,3450 fluorescence intensity (a.u.)
6,GTGAGTTGTGTGGCCAGCGTTTCGACAGCAGCTCAAACTCCGGAGTCACCTAGTGCAG,22000 fluorescence intensity (a.u.)
7,TGCAGCGTTGGACGGCCGAAAAGACCAGCTAAGCATCATTCGGAGTCACCTAGTGCAG,3200 fluorescence intensity (a.u.)
8,GCGAACAGCCTGCGAGTCGCCGTCGCCATCGTCAGCTCCCCGGAGTCACCTAGTGCAG,4070 fluorescence intensity (a.u.)
9,TTAGGATCACAGGCTTGACATGACTGTTTCTCTGTTAGGTCGGAGTCACCTAGTGCAG,3920 fluorescence intensity (a.u.)
10,TATATTCGTGTCATTTAGATACCATACCACATCCTGCTACCGGAGTCACCTAGTGCAG,3240 fluorescence intensity (a.u.)
11,CGAGCTCATCCATCGGCCCTCAAATTCGCCCCGAAGCACCCGGAGTCACCTAGTGCAG,6650 fluorescence intensity (a.u.)
12,AAACCTTTTCCCATTAAGATGGCGCTGCCTACGCAGCTGGCGGAGTCACCTAGTGCAG,3600 fluorescence intensity (a.u.)
13,AGAGCTGAGCCTTATGTGTGGTCTGTCTGTGCCTAGTCGACGGAGTCACCTAGTGCAG,48400 fluorescence intensity (a.u.)
14,GCACCGCCGCAAGGAATTCTGTTGTTTCCACCCCGCTCCCCGGAGTCACCTAGTGCAG,3200 fluorescence intensity (a.u.)
15,CAATTGACGCGCCTCGGTATAACCTCACTAGCTGCGTCATCGGAGTCACCTAGTGCAG,4220 fluorescence intensity (a.u.)
16,TTTGAGCTAGCTAGCTAGCTGAGGTGGGGCATATATATAACGGAGTCACCTAGTGCAG,4610 fluorescence intensity (a.u.)
17,AGCGGCCGCCGCCGCCGCTTGCAACCCAGCAAGCTAGGGTCGGAGTCACCTAGTGCAG,34500 fluorescence intensity (a.u.)
18,GCCCTAATGCACTCGTAATCTTGCTGTCTCTGCTTCGTTGCGGAGTCACCTAGTGCAG,3880 fluorescence intensity (a.u.)
19,GAGTGATGATGACTAGTCTACTGGAGTAGTACTAGTGGCCCGGAGTCACCTAGTGCAG,4540 fluorescence intensity (a.u.)
20,TCACGGTTCGACTACATCGGCTCTTCAGTGTCATCTACCTCGGAGTCACCTAGTGCAG,3870 fluorescence intensity (a.u.)
21,GCCCTCCCTGTCATCCCCGTCACCCATCCTGCCTGCTTTTCGGAGTCACCTAGTGCAG,8530 fluorescence intensity (a.u.)

# Single values from the results shown:
# binding signal with ATGTGCCCATCAAATCCAACGAATAAATGAGTCATCGGTTCGGAGTCACCTAGTGCAG reads 11100 fluorescence intensity (a.u.)
# binding signal with GCACCGCCGCAAGGAATTCTGTTGTTTCCACCCCGCTCCCCGGAGTCACCTAGTGCAG reads 3200 fluorescence intensity (a.u.)

# (list continues)

row,Sequence,binding signal
1,GGTTGGTATTAACCGCTGATGGTGAATGCCAACCTCAGAACGGAGTCACCTAGTGCAG,51200 fluorescence intensity (a.u.)
2,GAACCGCACGAAATCGACCACGTCGTCGAGCTGCGCTGCGCGGAGTCACCTAGTGCAG,4740 fluorescence intensity (a.u.)
3,ATCGCACAACACACCATCACCTCCCTCTATGACAGTGGGCCGGAGTCACCTAGTGCAG,3440 fluorescence intensity (a.u.)
4,CAGCTACATGCCTCCTGTCTCTGTGCGTCATGCCGTCATCCGGAGTCACCTAGTGCAG,5260 fluorescence intensity (a.u.)
5,TAATATATATTTTCAAATTATTCAGTCTTTTGTTTGGGAGCGGAGTCACCTAGTGCAG,4980 fluorescence intensity (a.u.)
6,GGCTGTCCAACTTGCCACCTGCGTGGCAGCCGCATCGGCACGGAGTCACCTAGTGCAG,4640 fluorescence intensity (a.u.)
7,GTGCGACCCCTGCGCGCTACACGTGGCATGTCCGAATCTCCGGAGTCACCTAGTGCAG,12400 fluorescence intensity (a.u.)
8,TTAGGCTGACGCACGAGCAAACCACTTGATAGTTGACCGCCGGAGTCACCTAGTGCAG,3890 fluorescence intensity (a.u.)
9,GTATAAACCAAAGCCCTTGATGAAACGAATAATAAATGAACGGAGTCACCTAGTGCAG,29300 fluorescence intensity (a.u.)
10,AACTCACTCTTACACCTACATACTCATTCATCAAATCCAACGGAGTCACCTAGTGCAG,3170 fluorescence intensity (a.u.)
11,CTGTGCTGCAGGTCAAAGTCATGAAAGAAGCTCCAGTGCCCGGAGTCACCTAGTGCAG,5440 fluorescence intensity (a.u.)
12,CACATATAGTATGGTGATAAAACGTGGGTGCATGACTCTACGGAGTCACCTAGTGCAG,3350 fluorescence intensity (a.u.)
13,CCACATCGGATGCCACGTCAGCCCTAGCCACATCAGCGCACGGAGTCACCTAGTGCAG,38500 fluorescence intensity (a.u.)
14,GTGTTCGACGAAATGCCAACAAGGAACGTGGTGGCGTGGACGGAGTCACCTAGTGCAG,3500 fluorescence intensity (a.u.)
15,TTGCTCTTGAGTCATCATCTGATCATATTCAATTCTTTATCGGAGTCACCTAGTGCAG,7280 fluorescence intensity (a.u.)
16,TTGTGTAGTAAAGATCGCAAAATGACATGCCTGATAGTATCGGAGTCACCTAGTGCAG,3490 fluorescence intensity (a.u.)
17,CTCCCTCCTCCTCCGTCTCCTCCTTTCATCTCTTCTTCTGCGGAGTCACCTAGTGCAG,27700 fluorescence intensity (a.u.)
18,AATACGTCATGTAAGACTATGGACCACATCAGCTCACCACCGGAGTCACCTAGTGCAG,5860 fluorescence intensity (a.u.)
19,GCGGGCTGGGCGGCCGCTCGGCGTGTCCACGTCGGATAGCCGGAGTCACCTAGTGCAG,12000 fluorescence intensity (a.u.)
20,GCCGCGTGCAGCGGCGTGTCCACGTCCAGGAGCACCCTGTCGGAGTCACCTAGTGCAG,3430 fluorescence intensity (a.u.)
21,GCGTGGAATGCGGATGATAGACGACGTACGCACGCGTGTGCGGAGTCACCTAGTGCAG,3760 fluorescence intensity (a.u.)
